No constants are given. Whether binding was seen depends on the method and setting. Binding seen in cells or lysates may run through a third protein. Some results given as binding are weak or reduced against the parent protein; the word gives no strength.
Target: FLAG-tagged RUNX1 (UniProt Q01196)
Assay: co-IP; HEK293T cells co-transfected with a FLAG-tagged and a non-tagged protein; lysis after 3 days in 150 mM NaCl, 50 mM Tris-HCl pH 7,5, 1% Nonidet P-40, 0,5% sodium deoxycholate; α-FLAG M2 affinity gel 2 h at 4°C, 6 washes; immunoblot with α-FOXP3 eBio7979

The chains behind the UniProt entries cited, without tags or fusion partners.
UniProt Q01196: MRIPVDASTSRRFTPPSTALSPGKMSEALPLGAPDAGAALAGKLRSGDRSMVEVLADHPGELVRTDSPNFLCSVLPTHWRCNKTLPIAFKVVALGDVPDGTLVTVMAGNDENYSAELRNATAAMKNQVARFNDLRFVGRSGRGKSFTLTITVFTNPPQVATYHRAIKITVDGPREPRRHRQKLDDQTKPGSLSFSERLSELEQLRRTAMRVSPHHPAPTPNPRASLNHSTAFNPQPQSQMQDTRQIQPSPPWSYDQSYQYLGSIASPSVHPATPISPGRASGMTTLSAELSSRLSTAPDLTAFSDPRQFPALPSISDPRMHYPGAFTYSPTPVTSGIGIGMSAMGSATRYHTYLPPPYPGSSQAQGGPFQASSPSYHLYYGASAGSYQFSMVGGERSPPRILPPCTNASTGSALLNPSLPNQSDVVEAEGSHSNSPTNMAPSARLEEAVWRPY
UniProt Q9BZS1: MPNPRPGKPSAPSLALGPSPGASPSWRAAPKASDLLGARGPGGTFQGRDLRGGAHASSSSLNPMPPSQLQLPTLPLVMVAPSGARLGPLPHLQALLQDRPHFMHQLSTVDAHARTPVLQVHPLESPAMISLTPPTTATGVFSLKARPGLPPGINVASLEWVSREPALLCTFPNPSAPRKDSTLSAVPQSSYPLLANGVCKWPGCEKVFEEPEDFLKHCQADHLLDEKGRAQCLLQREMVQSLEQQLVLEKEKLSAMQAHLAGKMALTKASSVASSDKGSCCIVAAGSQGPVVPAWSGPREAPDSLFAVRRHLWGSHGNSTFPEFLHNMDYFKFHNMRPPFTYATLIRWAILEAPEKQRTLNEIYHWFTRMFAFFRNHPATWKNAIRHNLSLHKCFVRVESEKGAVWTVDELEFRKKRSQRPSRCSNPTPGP

FOXP3fl (from UniProt Q9BZS1 1-431)
binding: binds

Reference: paper PMC2699478
